PMC5821886
These are yes or no findings as the source states them, for the method shown. Some results given as binding are weak or reduced against the parent protein; the word gives no strength.

Chains of the proteins cited; added tags and fusions are not shown. Lines headed by an entry give the natural chain unless they say otherwise; changes in a name come on top. A line that says so, or that is headed by a name, gives the form on record, which may keep a tag or linker.
UniProt Q7Y040: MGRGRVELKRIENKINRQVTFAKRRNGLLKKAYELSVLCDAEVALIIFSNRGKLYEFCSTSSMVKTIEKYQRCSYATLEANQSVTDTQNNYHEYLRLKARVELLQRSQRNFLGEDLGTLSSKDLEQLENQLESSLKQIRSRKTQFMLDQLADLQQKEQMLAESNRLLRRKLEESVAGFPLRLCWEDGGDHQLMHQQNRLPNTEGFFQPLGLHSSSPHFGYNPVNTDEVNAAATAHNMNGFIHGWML
SlMADS-RIN (Q8S4L4, form named): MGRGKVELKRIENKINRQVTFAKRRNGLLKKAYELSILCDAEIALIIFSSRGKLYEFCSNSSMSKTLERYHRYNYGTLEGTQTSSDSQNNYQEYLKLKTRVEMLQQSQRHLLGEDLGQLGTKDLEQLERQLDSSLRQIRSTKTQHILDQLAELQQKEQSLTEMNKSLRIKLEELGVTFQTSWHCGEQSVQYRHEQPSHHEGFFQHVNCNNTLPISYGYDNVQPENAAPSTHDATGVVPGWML
UniProt K4BND8: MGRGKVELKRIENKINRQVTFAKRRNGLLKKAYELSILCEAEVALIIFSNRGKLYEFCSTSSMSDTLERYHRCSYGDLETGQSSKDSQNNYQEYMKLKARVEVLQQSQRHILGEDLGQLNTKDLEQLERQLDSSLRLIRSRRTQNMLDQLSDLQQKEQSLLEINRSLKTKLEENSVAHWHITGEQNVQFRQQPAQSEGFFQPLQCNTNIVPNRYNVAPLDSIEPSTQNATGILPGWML

Key:
[1] = target: SlMADS1 (tomato) (UniProt Q7Y040); assay: two-hybrid; … GAL4 Two-Hybrid System III (Clontech); prey pGADT7-SlCMB1 in Y187 mated with baits in pGBKT7 in Y2HGold; diploids selected on DDO, then growth on QDO and blue colour on QDO/X (X-a-Gal); 30 °C, 3-5 d
[2] = target: SlMADS-RIN (tomato) (UniProt Q8S4L4); assay: as above

With SlCMB1 (from UniProt K4BND8 1-238) the binding [1] was “binds” and the binding [2] was “binds”.
